Results published in article PMC4691244.
Results are given in words; binding and its absence hold for the method and conditions named. Binding seen in cells or lysates may run through a third protein. For some assays here: Where a sequence is shown, tags or fusion partners need not be part of it.

Experiments:
[1] = target: T1, FLAG-DGCR8 (human), Q8WYQ5; experiment: co-IP; anti-T7 or anti-FLAG immunoprecipitation of overexpressed T7-DGCR8, FLAG-DGCR8, FLAG-Drosha (and T7-DGCR8 dRBD1&2 mut) from transfected HEK293T cells; western blot of endogenous partners; in the presence or absence of RNase A (Figure 1C); conditions: remark: other sources report otherwise
T1 chain: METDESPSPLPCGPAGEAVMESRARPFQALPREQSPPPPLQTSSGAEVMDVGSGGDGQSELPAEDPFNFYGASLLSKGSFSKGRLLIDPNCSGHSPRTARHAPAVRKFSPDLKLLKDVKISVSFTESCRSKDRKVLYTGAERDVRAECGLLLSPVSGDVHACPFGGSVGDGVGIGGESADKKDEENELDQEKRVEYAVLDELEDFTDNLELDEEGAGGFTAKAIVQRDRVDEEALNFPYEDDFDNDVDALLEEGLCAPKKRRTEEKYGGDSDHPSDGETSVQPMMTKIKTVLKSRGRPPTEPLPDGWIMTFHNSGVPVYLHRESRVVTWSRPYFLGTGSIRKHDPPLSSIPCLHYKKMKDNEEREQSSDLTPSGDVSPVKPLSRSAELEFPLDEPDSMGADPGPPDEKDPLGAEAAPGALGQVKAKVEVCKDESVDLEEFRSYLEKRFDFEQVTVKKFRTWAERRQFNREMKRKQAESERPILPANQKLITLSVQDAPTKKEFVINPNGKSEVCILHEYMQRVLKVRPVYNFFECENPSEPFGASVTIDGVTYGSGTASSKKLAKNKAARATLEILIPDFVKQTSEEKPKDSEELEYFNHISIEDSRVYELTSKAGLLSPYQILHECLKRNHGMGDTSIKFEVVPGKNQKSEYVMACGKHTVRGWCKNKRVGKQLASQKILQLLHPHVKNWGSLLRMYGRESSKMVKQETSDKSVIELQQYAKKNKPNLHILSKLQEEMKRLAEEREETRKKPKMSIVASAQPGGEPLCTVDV

[2] = target: T2, T7-DGCR8 (human), Q8WYQ5; experiment: as above; conditions: remark: other sources report otherwise
T2 chain: T1 chain

binding [1]: no binding
binding [2]: no binding
B1: hDIS3, Q9Y2L1 1-958 (enzyme)
chain: MLKSKTFLKKTRAGGVMKIVREHYLRDDIGCGAPGCAACGGAHEGPALEPQPQDPASSVCPQPHYLLPDTNVLLHQIDVLEDPAIRNVIVLQTVLQEVRNRSAPVYKRIRDVTNNQEKHFYTFTNEHHRETYVEQEQGENANDRNDRAIRVAAKWYNEHLKKMSADNQLQVIFITNDRRNKEKAIEEGIPAFTCEEYVKSLTANPELIDRLACLSEEGNEIESGKIIFSEHLPLSKLQQGIKSGTYLQGTFRASRENYLEATVWIHGDNEENKEIILQGLKHLNRAVHEDIVAVELLPKSQWVAPSSVVLHDEGQNEEDVEKEEETERMLKTAVSEKMLKPTGRVVGIIKRNWRPYCGMLSKSDIKESRRHLFTPADKRIPRIRIETRQASTLEGRRIIVAIDGWPRNSRYPNGHFVRNLGDVGEKETETEVLLLEHDVPHQPFSQAVLSFLPKMPWSITEKDMKNREDLRHLCICSVDPPGCTDIDDALHCRELENGNLEVGVHIADVSHFIRPGNALDQESARRGTTVYLCEKRIDMVPELLSSNLCSLKCDVDRLAFSCIWEMNHNAEILKTKFTKSVINSKASLTYAEAQLRIDSANMNDDITTSLRGLNKLAKILKKRRIEKGALTLSSPEVRFHMDSETHDPIDLQTKELRETNSMVEEFMLLANISVAKKIHEEFSEHALLRKHPAPPPSNYEILVKAARSRNLEIKTDTAKSLAESLDQAESPTFPYLNTLLRILATRCMMQAVYFCSGMDNDFHHYGLASPIYTHFTSPIRRYADVIVHRLLAVAIGADCTYPELTDKHKLADICKNLNFRHKMAQYAQRASVAFHTQLFFKSKGIVSEEAYILFVRKNAIVVLIPKYGLEGTVFFEEKDKPNPQLIYDDEIPSLKIEDTVFHVFDKVKVKIMLDSSNLQHQKIRMSLVEPQIPGISIPTDTSNMDLNGPKKKKMKLGK
